{
  "sequences": {"note": "By UniProt entry, the sequences of proteins in these tests, tags left out. Where a name states a change or a piece, a line headed by the entry shows the natural chain unless it says otherwise.", "UniProt P17152": "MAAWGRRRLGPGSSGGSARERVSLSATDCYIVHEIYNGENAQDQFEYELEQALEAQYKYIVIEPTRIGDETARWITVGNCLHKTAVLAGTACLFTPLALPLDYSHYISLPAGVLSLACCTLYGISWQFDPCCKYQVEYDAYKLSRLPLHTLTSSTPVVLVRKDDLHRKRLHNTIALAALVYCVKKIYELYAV", "UniProt P60174, whole entry": "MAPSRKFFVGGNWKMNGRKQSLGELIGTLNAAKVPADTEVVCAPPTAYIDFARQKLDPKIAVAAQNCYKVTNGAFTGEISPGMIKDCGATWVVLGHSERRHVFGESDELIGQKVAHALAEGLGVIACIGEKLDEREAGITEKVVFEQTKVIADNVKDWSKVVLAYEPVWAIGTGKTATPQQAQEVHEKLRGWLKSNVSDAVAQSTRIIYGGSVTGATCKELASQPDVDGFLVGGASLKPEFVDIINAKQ", "UniProt O95985": "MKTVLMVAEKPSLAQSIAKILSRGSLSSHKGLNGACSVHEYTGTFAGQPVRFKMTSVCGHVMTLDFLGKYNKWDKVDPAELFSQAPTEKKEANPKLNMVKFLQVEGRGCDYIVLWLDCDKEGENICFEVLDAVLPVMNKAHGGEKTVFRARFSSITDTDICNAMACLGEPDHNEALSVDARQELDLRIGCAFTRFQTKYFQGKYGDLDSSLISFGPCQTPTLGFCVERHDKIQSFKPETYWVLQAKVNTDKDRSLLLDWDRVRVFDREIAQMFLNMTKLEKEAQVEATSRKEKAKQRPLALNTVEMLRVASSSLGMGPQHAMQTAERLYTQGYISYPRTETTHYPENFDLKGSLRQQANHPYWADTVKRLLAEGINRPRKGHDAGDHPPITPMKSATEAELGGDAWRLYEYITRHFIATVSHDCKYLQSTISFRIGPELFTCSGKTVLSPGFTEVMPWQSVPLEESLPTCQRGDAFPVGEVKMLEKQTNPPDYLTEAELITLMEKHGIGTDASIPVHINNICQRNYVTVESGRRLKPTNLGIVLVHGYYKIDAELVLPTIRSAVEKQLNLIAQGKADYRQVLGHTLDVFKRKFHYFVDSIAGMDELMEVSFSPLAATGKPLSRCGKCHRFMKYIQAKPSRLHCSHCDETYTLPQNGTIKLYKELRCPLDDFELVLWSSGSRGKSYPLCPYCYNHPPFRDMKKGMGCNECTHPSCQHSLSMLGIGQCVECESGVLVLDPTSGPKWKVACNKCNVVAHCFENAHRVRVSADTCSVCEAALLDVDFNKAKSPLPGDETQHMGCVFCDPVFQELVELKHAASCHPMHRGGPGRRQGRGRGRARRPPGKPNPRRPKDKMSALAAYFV", "UniProt Q9BV44": "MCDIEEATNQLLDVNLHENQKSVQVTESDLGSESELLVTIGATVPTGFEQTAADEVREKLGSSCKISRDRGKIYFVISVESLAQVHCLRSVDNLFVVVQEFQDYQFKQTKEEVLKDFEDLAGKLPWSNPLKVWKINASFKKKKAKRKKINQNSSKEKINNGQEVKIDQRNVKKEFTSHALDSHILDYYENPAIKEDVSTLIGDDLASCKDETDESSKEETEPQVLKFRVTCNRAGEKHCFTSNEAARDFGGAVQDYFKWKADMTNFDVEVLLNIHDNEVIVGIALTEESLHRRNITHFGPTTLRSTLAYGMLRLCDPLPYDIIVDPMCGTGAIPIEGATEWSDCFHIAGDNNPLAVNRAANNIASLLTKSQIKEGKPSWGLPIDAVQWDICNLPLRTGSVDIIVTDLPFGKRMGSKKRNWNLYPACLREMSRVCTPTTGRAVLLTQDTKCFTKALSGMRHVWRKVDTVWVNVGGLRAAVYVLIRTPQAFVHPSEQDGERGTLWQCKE", "UniProt Q6PL24": "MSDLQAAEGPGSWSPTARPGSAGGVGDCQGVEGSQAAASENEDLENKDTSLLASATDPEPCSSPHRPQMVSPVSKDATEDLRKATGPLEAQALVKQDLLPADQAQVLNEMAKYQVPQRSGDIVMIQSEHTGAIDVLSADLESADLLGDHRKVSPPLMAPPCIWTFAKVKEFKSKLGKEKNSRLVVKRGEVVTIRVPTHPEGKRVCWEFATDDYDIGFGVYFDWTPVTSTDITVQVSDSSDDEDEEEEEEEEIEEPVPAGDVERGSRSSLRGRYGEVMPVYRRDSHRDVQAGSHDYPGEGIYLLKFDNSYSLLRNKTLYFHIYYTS", "UniProt Q96GC9": "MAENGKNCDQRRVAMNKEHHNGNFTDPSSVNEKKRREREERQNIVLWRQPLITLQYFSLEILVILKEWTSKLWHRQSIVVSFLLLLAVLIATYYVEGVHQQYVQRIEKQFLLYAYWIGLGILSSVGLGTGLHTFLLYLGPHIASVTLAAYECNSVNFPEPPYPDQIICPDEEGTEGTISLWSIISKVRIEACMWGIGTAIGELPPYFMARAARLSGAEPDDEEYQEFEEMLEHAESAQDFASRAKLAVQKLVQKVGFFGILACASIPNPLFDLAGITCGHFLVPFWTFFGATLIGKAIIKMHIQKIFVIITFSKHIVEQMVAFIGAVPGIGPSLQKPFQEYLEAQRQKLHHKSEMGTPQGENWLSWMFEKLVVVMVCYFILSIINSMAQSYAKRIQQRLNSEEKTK", "UniProt O14763, whole entry": "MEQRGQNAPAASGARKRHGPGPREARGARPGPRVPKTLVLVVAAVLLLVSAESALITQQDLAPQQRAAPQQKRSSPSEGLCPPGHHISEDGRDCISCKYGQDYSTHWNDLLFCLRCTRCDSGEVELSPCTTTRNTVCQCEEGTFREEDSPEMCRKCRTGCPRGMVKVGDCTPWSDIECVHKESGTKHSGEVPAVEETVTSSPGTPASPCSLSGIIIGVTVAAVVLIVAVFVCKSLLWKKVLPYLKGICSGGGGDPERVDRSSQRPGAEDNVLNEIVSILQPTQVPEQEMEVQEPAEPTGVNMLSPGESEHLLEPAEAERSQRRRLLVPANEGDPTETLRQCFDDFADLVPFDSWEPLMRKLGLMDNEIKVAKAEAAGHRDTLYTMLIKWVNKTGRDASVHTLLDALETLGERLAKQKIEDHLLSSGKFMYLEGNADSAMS", "UniProt P29401": "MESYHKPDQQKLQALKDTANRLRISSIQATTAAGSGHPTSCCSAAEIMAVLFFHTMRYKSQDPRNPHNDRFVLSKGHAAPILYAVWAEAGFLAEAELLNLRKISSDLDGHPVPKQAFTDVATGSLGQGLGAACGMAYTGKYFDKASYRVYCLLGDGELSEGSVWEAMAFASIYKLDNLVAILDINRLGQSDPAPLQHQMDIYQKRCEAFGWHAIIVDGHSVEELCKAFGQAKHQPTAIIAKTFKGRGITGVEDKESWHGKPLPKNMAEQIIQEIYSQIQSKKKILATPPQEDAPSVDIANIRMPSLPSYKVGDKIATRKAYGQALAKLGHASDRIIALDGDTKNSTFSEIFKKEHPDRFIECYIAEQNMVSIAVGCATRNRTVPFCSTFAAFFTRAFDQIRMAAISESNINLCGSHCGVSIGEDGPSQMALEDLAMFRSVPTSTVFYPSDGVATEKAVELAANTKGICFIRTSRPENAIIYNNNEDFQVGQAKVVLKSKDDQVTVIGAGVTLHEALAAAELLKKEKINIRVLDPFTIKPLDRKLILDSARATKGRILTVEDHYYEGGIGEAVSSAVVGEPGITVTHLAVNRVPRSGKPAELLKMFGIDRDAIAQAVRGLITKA", "UniProt O95455": "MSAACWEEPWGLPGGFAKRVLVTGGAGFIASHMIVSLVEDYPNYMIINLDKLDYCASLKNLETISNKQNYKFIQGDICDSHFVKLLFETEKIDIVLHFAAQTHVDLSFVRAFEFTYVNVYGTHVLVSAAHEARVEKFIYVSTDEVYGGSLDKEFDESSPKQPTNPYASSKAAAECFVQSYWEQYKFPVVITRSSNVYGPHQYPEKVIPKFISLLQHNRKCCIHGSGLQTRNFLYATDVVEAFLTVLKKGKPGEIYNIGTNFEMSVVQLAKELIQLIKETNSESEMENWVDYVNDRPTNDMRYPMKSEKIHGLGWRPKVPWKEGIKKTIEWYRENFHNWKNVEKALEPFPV", "UniProt O43493": "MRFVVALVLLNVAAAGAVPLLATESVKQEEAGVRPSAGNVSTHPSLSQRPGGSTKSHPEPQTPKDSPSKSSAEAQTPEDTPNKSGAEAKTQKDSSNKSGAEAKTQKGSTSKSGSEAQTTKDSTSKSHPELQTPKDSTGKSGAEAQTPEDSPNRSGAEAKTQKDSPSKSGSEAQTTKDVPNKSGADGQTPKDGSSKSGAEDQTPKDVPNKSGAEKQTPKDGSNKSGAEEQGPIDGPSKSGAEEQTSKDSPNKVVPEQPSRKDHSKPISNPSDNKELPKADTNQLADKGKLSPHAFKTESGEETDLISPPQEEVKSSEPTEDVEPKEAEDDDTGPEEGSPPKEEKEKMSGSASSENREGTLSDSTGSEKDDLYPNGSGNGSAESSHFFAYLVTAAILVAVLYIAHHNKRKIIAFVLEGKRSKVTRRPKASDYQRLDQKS", "UniProt Q8IXH7, whole entry": "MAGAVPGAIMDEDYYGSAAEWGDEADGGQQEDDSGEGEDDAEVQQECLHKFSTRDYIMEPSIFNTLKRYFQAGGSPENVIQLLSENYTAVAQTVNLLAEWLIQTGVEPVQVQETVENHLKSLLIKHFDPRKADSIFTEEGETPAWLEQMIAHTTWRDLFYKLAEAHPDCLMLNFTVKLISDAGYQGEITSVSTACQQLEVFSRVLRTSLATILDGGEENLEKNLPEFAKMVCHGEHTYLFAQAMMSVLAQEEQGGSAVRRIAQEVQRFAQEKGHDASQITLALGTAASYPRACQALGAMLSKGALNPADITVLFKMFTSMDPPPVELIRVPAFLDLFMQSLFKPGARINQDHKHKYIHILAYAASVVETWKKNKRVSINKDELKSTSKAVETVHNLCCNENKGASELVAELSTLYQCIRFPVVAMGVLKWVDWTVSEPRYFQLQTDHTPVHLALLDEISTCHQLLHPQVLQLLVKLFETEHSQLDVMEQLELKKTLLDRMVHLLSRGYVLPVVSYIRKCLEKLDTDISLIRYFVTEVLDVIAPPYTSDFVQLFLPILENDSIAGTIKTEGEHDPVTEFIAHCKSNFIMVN", "UniProt Q71RG4": "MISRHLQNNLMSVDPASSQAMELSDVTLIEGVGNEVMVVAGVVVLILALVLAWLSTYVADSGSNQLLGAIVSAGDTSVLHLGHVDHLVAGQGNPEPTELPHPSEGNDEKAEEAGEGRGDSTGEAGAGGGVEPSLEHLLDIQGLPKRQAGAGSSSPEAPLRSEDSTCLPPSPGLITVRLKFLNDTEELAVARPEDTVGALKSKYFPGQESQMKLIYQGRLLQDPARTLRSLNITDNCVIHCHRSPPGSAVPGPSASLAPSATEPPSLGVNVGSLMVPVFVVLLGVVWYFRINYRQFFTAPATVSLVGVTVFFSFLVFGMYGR", "UniProt O43615": "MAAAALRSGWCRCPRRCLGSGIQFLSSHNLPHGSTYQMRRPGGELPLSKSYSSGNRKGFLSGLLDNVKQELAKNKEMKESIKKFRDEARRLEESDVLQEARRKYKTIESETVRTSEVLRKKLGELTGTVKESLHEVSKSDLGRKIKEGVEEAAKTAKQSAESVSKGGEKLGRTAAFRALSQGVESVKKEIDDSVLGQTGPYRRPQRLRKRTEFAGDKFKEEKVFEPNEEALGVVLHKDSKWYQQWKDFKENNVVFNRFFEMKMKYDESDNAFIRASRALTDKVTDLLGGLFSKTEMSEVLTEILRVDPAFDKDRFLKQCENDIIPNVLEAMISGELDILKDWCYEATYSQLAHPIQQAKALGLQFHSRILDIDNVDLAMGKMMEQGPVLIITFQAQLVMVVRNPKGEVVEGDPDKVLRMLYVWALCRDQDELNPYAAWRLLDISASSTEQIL", "UniProt Q5JTV8": "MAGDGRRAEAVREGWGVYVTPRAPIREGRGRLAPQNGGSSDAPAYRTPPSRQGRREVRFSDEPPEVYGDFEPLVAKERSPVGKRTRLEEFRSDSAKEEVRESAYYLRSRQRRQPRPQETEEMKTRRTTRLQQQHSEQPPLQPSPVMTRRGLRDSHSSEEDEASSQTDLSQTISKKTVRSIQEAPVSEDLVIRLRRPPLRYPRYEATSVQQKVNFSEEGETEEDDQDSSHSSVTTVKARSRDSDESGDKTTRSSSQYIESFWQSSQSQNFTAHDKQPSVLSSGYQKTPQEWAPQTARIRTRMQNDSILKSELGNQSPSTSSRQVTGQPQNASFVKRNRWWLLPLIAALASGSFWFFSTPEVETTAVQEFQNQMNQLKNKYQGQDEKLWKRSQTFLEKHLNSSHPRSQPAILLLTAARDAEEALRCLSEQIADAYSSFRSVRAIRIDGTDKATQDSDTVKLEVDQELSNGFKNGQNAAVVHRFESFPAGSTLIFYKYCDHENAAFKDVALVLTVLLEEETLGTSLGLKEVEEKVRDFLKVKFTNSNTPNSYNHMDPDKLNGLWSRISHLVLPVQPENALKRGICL", "UniProt P49755": "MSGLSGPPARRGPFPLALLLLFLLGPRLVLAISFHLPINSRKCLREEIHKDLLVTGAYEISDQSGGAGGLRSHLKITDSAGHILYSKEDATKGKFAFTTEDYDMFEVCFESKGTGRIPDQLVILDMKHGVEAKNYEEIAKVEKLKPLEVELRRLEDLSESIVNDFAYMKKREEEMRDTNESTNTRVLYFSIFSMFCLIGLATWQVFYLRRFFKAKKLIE"},
  "source": "the supplement of paper PMC7666118",
  "note": "The list shows a part of the results.",
  "data": [
    {"compound": "COc1ccc(Cn2ccc3ccc(C(=O)NO)cc32)cc1", "test": "dose-dependent thermal stabilisation call (2D-TPP, DLPTP, 10% FDR) (binary (1 = stabilised)); higher = stabilised by the compound", "details": "system: HL-60 intact cells; concentration range 0.04-10 µM", "values": [
      {"target": "TBC1D13 (UniProt Q9NVG8)", "dose-dependent thermal stabilisation call": "inactive: 0"},
      {"target": "TMEM11 (UniProt P17152)", "dose-dependent thermal stabilisation call": "inactive: 0"},
      {"target": "TLK1 (UniProt Q9UKI8)", "dose-dependent thermal stabilisation call": "inactive: 0"},
      {"target": "TCF3 (UniProt P15923)", "dose-dependent thermal stabilisation call": "inactive: 0"},
      {"target": "TARBP1 (UniProt Q13395)", "dose-dependent thermal stabilisation call": "inactive: 0"},
      {"target": "TPI1 (UniProt P60174)", "dose-dependent thermal stabilisation call": "inactive: 0"},
      {"target": "TP53BP2 (UniProt Q13625)", "dose-dependent thermal stabilisation call": "inactive: 0"},
      {"target": "TMEM106C (UniProt Q9BVX2)", "dose-dependent thermal stabilisation call": "inactive: 0"},
      {"target": "TOP3B (UniProt O95985)", "dose-dependent thermal stabilisation call": "inactive: 0"},
      {"target": "TAP1 (UniProt Q03518)", "dose-dependent thermal stabilisation call": "inactive: 0"},
      {"target": "TMEM63B (UniProt Q5T3F8)", "dose-dependent thermal stabilisation call": "inactive: 0"},
      {"target": "TLE3 (UniProt Q04726)", "dose-dependent thermal stabilisation call": "inactive: 0"},
      {"target": "TMEM168 (UniProt Q9H0V1)", "dose-dependent thermal stabilisation call": "inactive: 0"},
      {"target": "THUMPD3 (UniProt Q9BV44)", "dose-dependent thermal stabilisation call": "inactive: 0"},
      {"target": "TIMM10 (UniProt P62072)", "dose-dependent thermal stabilisation call": "inactive: 0"},
      {"target": "TBC1D10B (UniProt Q4KMP7)", "dose-dependent thermal stabilisation call": "inactive: 0"},
      {"target": "TMED8 (UniProt Q6PL24)", "dose-dependent thermal stabilisation call": "inactive: 0"},
      {"target": "TMEM49 (UniProt Q96GC9)", "dose-dependent thermal stabilisation call": "inactive: 0"},
      {"target": "TATDN3 (UniProt Q17R31)", "dose-dependent thermal stabilisation call": "inactive: 0"},
      {"target": "TP53BP1 (UniProt Q12888)", "dose-dependent thermal stabilisation call": "inactive: 0"},
      {"target": "TNFRSF10B (UniProt O14763)", "dose-dependent thermal stabilisation call": "inactive: 0"},
      {"target": "TBC1D10C (UniProt Q8IV04)", "dose-dependent thermal stabilisation call": "inactive: 0"},
      {"target": "TKT (UniProt P29401)", "dose-dependent thermal stabilisation call": "inactive: 0"},
      {"target": "TGDS (UniProt O95455)", "dose-dependent thermal stabilisation call": "inactive: 0"},
      {"target": "TNPO3 (UniProt Q9Y5L0)", "dose-dependent thermal stabilisation call": "inactive: 0"},
      {"target": "TGOLN2 (UniProt O43493)", "dose-dependent thermal stabilisation call": "inactive: 0"},
      {"target": "TFB2M (UniProt Q9H5Q4)", "dose-dependent thermal stabilisation call": "inactive: 0"},
      {"target": "TH1L (UniProt Q8IXH7)", "dose-dependent thermal stabilisation call": "inactive: 0"},
      {"target": "TMEM109 (UniProt Q9BVC6)", "dose-dependent thermal stabilisation call": "inactive: 0"},
      {"target": "TMUB2 (UniProt Q71RG4)", "dose-dependent thermal stabilisation call": "inactive: 0"},
      {"target": "TCF25 (UniProt Q9BQ70)", "dose-dependent thermal stabilisation call": "inactive: 0"},
      {"target": "THRAP3 (UniProt Q9Y2W1)", "dose-dependent thermal stabilisation call": "inactive: 0"},
      {"target": "TIMM44 (UniProt O43615)", "dose-dependent thermal stabilisation call": "inactive: 0"},
      {"target": "TOPBP1 (UniProt Q92547)", "dose-dependent thermal stabilisation call": "inactive: 0"},
      {"target": "TPD52L2 (UniProt O43399)", "dose-dependent thermal stabilisation call": "inactive: 0"},
      {"target": "TOR1AIP1 (UniProt Q5JTV8)", "dose-dependent thermal stabilisation call": "inactive: 0"},
      {"target": "TMED10 (UniProt P49755)", "dose-dependent thermal stabilisation call": "inactive: 0"}
    ]}
  ]
}
